According to ChEMBL document CHEMBL4138206, “Acovenoside A Induces Mitotic Catastrophe Followed by Apoptosis in Non-Small-Cell Lung Cancer Cells” (J Nat Prod, 2017):

System: A549
Assay: Cytotoxicity against human A549 cells assessed as reduction in cell viability after 48 hrs by XTT assay
Assay type: functional, cell-based
Conditions: A549, 48 h

COc1cccc2c1C(=O)c1c(O)c3c(c(O)c1C2=O)C[C@@](O)(C(=O)CO)C[C@@H]3O[C@H]1C[C@H](N)[C@H](O)[C@H](C)O1 [DOXORUBICIN]
IC50: 426 nM
